Experimental data published in article PMC6030205.
Results are given in words; binding and its absence hold for the method and conditions named. Binding seen in cells or lysates may run through a third protein. A result given as binding can be weak or reduced; the word gives no strength.

Chains of the proteins cited; added tags and fusions are not shown. Lines headed by an entry give the natural chain unless they say otherwise; changes in a name come on top.
UniProt O48716: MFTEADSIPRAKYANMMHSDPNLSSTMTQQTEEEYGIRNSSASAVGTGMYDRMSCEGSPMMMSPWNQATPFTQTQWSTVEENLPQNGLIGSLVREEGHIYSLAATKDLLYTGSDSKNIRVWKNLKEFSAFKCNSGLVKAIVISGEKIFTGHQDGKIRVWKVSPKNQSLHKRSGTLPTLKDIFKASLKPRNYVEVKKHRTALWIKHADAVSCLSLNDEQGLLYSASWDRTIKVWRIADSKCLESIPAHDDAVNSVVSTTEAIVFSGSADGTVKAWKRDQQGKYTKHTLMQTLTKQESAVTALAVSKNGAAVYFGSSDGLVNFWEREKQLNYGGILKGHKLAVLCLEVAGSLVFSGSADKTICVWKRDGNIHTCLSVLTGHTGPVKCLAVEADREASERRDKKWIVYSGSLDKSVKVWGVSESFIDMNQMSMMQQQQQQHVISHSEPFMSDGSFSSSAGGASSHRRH
UniProt Q9C9X5: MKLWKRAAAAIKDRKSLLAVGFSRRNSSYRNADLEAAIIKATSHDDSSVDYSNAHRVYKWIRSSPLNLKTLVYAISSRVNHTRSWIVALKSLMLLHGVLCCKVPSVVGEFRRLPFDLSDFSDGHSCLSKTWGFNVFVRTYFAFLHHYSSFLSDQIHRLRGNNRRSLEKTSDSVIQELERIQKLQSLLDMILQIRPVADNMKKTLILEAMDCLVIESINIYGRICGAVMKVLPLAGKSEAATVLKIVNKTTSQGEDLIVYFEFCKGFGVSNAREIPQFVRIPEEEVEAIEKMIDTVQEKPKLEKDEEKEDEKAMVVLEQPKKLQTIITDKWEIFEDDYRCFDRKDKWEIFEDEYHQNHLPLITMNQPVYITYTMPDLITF

Molecular target: MBP-REN4 (Arabidopsis) (UniProt O48716)
Experiment: pull-down; MBP-REN4 on amylose beads; EAP1-RFP from transgenic Arabidopsis pollen tubes; MBP and amylose beads as negative control; only the target purified

binding: binds
Substance: EAP1-RFP (from UniProt Q9C9X5)
